Reference: patent US20230406915A1 (HJB HANGZHOU, published 2023)

Amino acid sequences for entries named in this document (tags omitted). A change or cut given only in a name is not applied to a line headed by its entry.
UniProt Q9UBU2: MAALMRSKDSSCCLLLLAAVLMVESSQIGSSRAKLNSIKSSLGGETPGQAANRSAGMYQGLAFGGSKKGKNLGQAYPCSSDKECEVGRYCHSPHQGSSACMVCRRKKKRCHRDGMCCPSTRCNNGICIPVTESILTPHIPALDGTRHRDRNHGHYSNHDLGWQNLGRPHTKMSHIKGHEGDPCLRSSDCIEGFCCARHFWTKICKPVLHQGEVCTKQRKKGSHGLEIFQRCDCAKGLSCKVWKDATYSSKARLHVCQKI

B1: M-747 (antibody, human IgG1, kappa, V domains shown)
VH: QVQLVQSGSELKKPGASVKVSCKASGYTFTNYWMNWVRQAPGQGLEWMGMIHPSDSETRLNQKFKDRVTITVDKSTSTAYMELSSLRSEDTAVYYCAREGRLGLRSYAMDYWGQGTLVTVSS
VL: DIVMTQSPDSLAVSLGERATINCKSSQSLLNSSNQKNYLAWYQQKPGQPPKLLVYFASTRESGVPDRFSGSGSGTDFTLTISSLQAEDVAVYFCQQHYITPLTFGGGTKVEIKR
notes: Humanized anti-DKK2 parental antibody; also called parental antibody; parental molecule
B2: M-751 (antibody, V domains shown)
VH: B1 VH with S9A, L11V, A16S, K65Q, D66G
VL: DIQMTQSPSSLSASVGDRVTITCRSSQSLLNSSNQKNYLAWYQQKPGKVPKLLIYFASTRESGVPSRFSGSGSGTDFTLTISSLQPEDVATYFCQQHYITPLTFGGGTKVEIKR
notes: also called candidate antibody
B3: M-755 (antibody, V domains shown)
VH: B1 VH with S9A, L11V, F64L, K65Q, D66G, S84R, E89D
VL: B2 VL with V49A, V89F
notes: as for B2

biological target: human DKK2 protein (R & D system, catalog number: 6628-DK-010) (human) (UniProt Q9UBU2); assay: ELISA with chemiluminescent readout at 470 nm on plate-coated human DKK2 (1 ng/well), detection with goat anti-human IgG-Fc HRP

binding, binds:
B1
B2
B3

Substitutions are numbered along the chain they refer to. Results are given in words; binding and its absence hold for the method and conditions named. A result given as binding can be weak or reduced; the word gives no strength.
